Values from PubChem BioAssay AID1259405 (NCATS, 2018)

Assay: 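Silenced genes that increase secreted GFP made by CHO cells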 (primary screen)
System: Chinese hamster CHO-K1 ovary cells with stable secreted eGFP expression
Knock-down reagent: single siRNA against mouse genes, 0.8 pmol siRNA per well (2 µl of 400 nM stock)
Time to read-out: 3 days
Measurement: 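Percent of the per-plate non-targeting control median for intracellular GFP per well by laser scanning cytometry and for cell viability by ATP luminescence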
Scale: GFP, % of control: higher = more GFP per well, higher productivity; viability (ATP), % of control: higher = more viable cells (more ATP)
Rule for the call: 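a knock-down is called active if GFP reaches 120% or more of non-targeting control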
The whole screen tested about 50,000 reagents; below is a part drawn at random. In the full data, about 4,000 (8%) were called active. 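Mouse siRNA library applied to hamster cells; one well for each siRNA.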 A number with no mark means an inactive call. The numbers tell different reagents against one gene apart.

| gene symbol | reagent no. | GFP, % of control | viability (ATP), % of control |
| --- | --- | --- | --- |
| Srfbp1 | 1 | 55.8 | 56.7 |
| Srfbp1 | 2 | 75.4 | 50.1 |
| Srfbp1 | 3 | 84.9 | 66.3 |
| Atp6v1f | 1 | 76.4 | 120 |
| Atp6v1f | 2 | 132 (active) | 140 |
| Atp6v1f | 3 | 96.5 | 83.6 |
| Fancc | 1 | 56.1 | 72.6 |
| Fancc | 2 | 52.8 | 69.9 |
| Fancc | 3 | 57.5 | 86.5 |
| Rbpms | 1 | 51.8 | 41 |
| Rbpms | 2 | 103 | 125 |
| Rbpms | 3 | 71.7 | 44.5 |
| Tmem239 | 1 | 61.6 | 82.5 |
| Tmem239 | 2 | 114 | 90.1 |
| Tmem239 | 3 | 75 | 105 |
| Ermn | 1 | 48.7 | 59.6 |
| Ermn | 2 | 68.3 | 79.7 |
| Ermn | 3 | 75.7 | 52.9 |
| Pgm2l1 | 1 | 58.2 | 64.1 |
| Pgm2l1 | 2 | 51.6 | 80.1 |
| Pgm2l1 | 3 | 51.8 | 43.1 |
| Cltrn | 1 | 115 | 93.5 |
| Cltrn | 2 | 75.7 | 95 |
| Cltrn | 3 | 95.6 | 95.6 |
| Hint3 | 1 | 67.5 | 80 |
| Hint3 | 2 | 72.5 | 84.5 |
| Hint3 | 3 | 59.6 | 39.9 |
| Or5g9 | 1 | 101 | 86 |
| Or5g9 | 2 | 66.4 | 91 |
| Or5g9 | 3 | 71.8 | 67.6 |
| Rpl11 | 1 | 32.8 | 44.1 |
| Rpl11 | 2 | 53.1 | 36.3 |
| Rpl11 | 3 | 61 | 62.7 |
| Btbd7 | 1 | 33.9 | 48.5 |
| Btbd7 | 2 | 83.3 | 68.6 |
| Btbd7 | 3 | 152 (active) | 102 |
| Cox19 | 1 | 56.8 | 51.2 |
| Cox19 | 2 | 92.9 | 75 |
| Cox19 | 3 | 48.2 | 39.3 |
| Retn | 1 | 63.3 | 41.9 |
| Retn | 2 | 72.3 | 55.7 |
| Retn | 3 | 67.4 | 93.4 |
| Hoxb5 | 1 | 69.1 | 97.1 |
| Hoxb5 | 2 | 68.4 | 64.1 |
| Hoxb5 | 3 | 90.3 | 101 |
| Taf3 | 1 | 78.4 | 75.2 |
| Taf3 | 2 | 90.1 | 107 |
| Taf3 | 3 | 135 (active) | 122 |
| Ccdc171 | 1 | 53.8 | 43.6 |
| Ccdc171 | 2 | 46.8 | 27.5 |
| Ccdc171 | 3 | 74.4 | 87.4 |
| Pramel7 | 1 | 143 (active) | 108 |
| Pramel7 | 2 | 119 | 88 |
| Pramel7 | 3 | 70.9 | 93 |
| Ptpmt1 | 1 | 111 | 84.8 |
| Ptpmt1 | 2 | 105 | 83.4 |
| Ptpmt1 | 3 | 73.7 | 70.1 |
| Stbd1 | 1 | 64.5 | 62.7 |
| Stbd1 | 2 | 99 | 55.1 |
| Stbd1 | 3 | 112 | 94.5 |
| Or8j3 | 1 | 123 (active) | 90.6 |
| Or8j3 | 2 | 23.6 | 89.1 |
| Or8j3 | 3 | 80.4 | 76.8 |
| Fgf16 | 1 | 70.1 | 65.1 |
| Fgf16 | 2 | 57.2 | 73 |
| Fgf16 | 3 | 65.5 | 79.5 |
| Or51v8 | 1 | 87 | 91.2 |
| Or51v8 | 2 | 79.2 | 73.1 |
| Or51v8 | 3 | 44.8 | 67.6 |
| Rwdd2a | 1 | 153 (active) | 71.1 |
| Rwdd2a | 2 | 85.1 | 90.5 |
| Rwdd2a | 3 | 70.8 | 81.4 |
| Gsx1 | 1 | 54.8 | 49.1 |
| Gsx1 | 2 | 91.3 | 45 |
| Gsx1 | 3 | 106 | 98.3 |
| Marcks | 1 | 88.1 | 55.1 |
| Marcks | 2 | 79.7 | 62.1 |
| Rpgrip1l | 1 | 99.3 | 89.4 |
| Rpgrip1l | 2 | 67 | 83.6 |
| Rpgrip1l | 3 | 87.6 | 81.4 |
| 2900026A02Rik | 1 | 62.3 | 65.5 |
| 2900026A02Rik | 2 | 48.6 | 45.6 |
| 2900026A02Rik | 3 | 84.4 | 61.9 |
| Dhx38 | 1 | 50.8 | 49.8 |
| Dhx38 | 2 | 43.6 | 61.5 |
| Dhx38 | 3 | 47.4 | 50.6 |

As entered above:
For “GFP, % of control”, Or51v8 #1 shows 87
Under “viability (ATP), % of control”, Cox19 #3 reads 39.3
For “viability (ATP), % of control”, Atp6v1f #3 reads 83.6
For “GFP, % of control”, Or8j3 #3 shows 80.4
Result for Pgm2l1 #3 under “viability (ATP), % of control”: 43.1
Result for Rbpms #2 under “viability (ATP), % of control”: 125
